This data set is described as follows: peptide synthesis. To be noted: conjugation step.
The substance “Rhodamine 110, Mono-3-Maleimidopropionamide, Mono-Cbz-Asp(t-Bu), Conjugated to ER-Targeting Peptide (M2444)” showed a conjugation yield of 57%. The substance “Rhodamine 110, Mono-3-Maleimidopropionamide, Mono-Cbz-Asp(t-Bu), Conjugated to Golgi Apparatus-Targeting Peptide (M2445)” displayed a conjugation yield of 92%.

On to “Rhodamine 110, Mono-3-Maleimidopropionamide, Mono-Cbz-Asp(t-Bu), Conjugated to Nonsense Peptide (M2453)”, for which the conjugation yield is 100%.

The values above are taken from patent publication US10401361B2 (Marker Gene Technologies, Inc., priority 2009, dated 2019).
